The test can be described thus: qHTS Assay to Find Inhibitors of Chronic Active B-Cell Receptor Signaling. As to conditions: ABC-DLBCL IkBa-CBG/CBR reporter, luminescence ratio (green luciferase fused to IkBa over red control in TMD8 lymphoma cells), 4 h. An outline of the steps:
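TMD8 ABC-DLBCL cells carrying doxycycline-inducible green luciferase fused to IkappaBalpha plus unfused red luciferase were exposed to compounds (up to 46 uM) for 4 hrs at 37C. Activity came from the overlap-corrected green/red luminescence ratio.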
For orientation: qHTS replaces the single test concentration by a dilution series.

Setting [1] is: measured here: CBR red luminescence, cell number.
Setting [2] is: measured here: IkBa-CBG green luminescence.

The list shows a part of the results. The main result of the screen is listed elsewhere. These columns were measured beside it and carry no call. The list favours compounds with an active or inconclusive main result. Potencies come from curve fits of mixed quality, noted in brackets.

In the case of `COC(=O)c1ccc2c(=O)n(CCCCCC(=O)NCCc3ccc(Cl)cc3)c(=O)[nH]c2c1`, the AC50 (as a rule, the midpoint of the concentration-response curve, whichever way the signal moves) under setting [1] was 5.01 µM [falling, partial curve, poor fit]. The same measure, in the same setting: as for `CCNc1ccc(C(=O)O)cc1N`, the figure is 8.2 µM [falling, partial curve]; as for `O=C(NC(=S)NC(c1ccccc1)c1ccncc1)c1ccccc1` (configuration not stated), 29.1 µM [falling, single point]. On to `CCOc1c(Br)cc(C(N)=O)cc1OC`, for which the AC50 under setting [1] was 31.6 µM [rising, single point]. Same read-out and setting: as for `CCOc1ccc(S(=O)(=O)Nc2ccc(C(=O)NN)cc2)cc1`, the figure is 12.6 µM [falling, partial curve, poor fit]. Still for that read-out and setting: as for `CC(=O)c1c(C)[nH]c(C(=O)OCc2nc3ccsc3c(=O)[nH]2)c1C`, the figure is 8.2 µM [rising, partial curve, poor fit].

Take `CCOC(=O)c1cccc(NC(=O)CN(c2ccc(C)cc2)S(=O)(=O)c2c(C)n[nH]c2C)c1`: the half-maximal activity concentration (AC50) under setting [1] is 5.62 µM [falling, partial curve]. Same read-out and setting: as for `CS(=O)(=O)N1CCc2cc(C(=O)Nc3cccc([N+](=O)[O-])c3)ccc21`, the figure is 0.794 µM [rising, full curve, poor fit]; as for `Cc1[nH]nc2c1C(C1CC=CCC1)C(C#N)=C(N)O2` (configuration not stated), 3.26 µM [falling, partial curve]. For the compound `O=C(Cc1ccccc1)NNC(=S)NC(=O)c1cccs1`, under setting [1], the AC50 is 7.08 µM [falling, partial curve].

For `CCN(c1cccc(C)c1)S(=O)(=O)c1cc(CN2C(=O)c3cccnc3C2=O)ccc1OC`, the concentration at half-maximal activity (AC50) under setting [1] was 5.62 µM [falling, full curve, poor fit]. Same read-out and setting: as for `Cc1ccc(-c2nc(CS(=O)(=O)CC(=O)NC3CCC(C)CC3)c(C)o2)cc1` (configuration not stated), the figure is 35.5 µM [falling, single point]; as for `COc1c(Cl)ccc(Cl)c1C(=O)NC(=O)Nc1nc(C)cc(C)n1`, 0.501 µM [falling, full curve]; as for `CCN1CCCC1CNC(=O)c1cc2c(C)nc3ccccc3c2o1` (configuration not stated), 7.94 µM [falling, partial curve].

As to `O=C1CCCC2=C1C(c1cccc(O)c1)c1c(ccc3ncccc13)N2` (configuration not stated), under setting [2], the concentration at half-maximal activity (AC50) was 10 µM [falling, partial curve, poor fit]. `O/N=C/c1ccc(OCc2ccccc2F)c(Cl)c1`: the AC50 under setting [1] is 1.46 µM [rising, full curve, poor fit]. Still for that read-out and setting: as for `Cc1ccccc1OCc1nc2ccccc2c(=O)n1/N=C/c1cn[nH]c1-c1ccccc1`, the figure is 23.1 µM [falling, partial curve]; as for `O=[N+]([O-])c1cc(C(F)(F)F)cc([N+](=O)[O-])c1NCCNC(=S)Nc1cccc(F)c1`, 35.5 µM [falling, single point].

For `COc1ccc(CC(=O)NCc2n[nH]c(=S)n2-c2ccccc2OC)cc1`, the concentration at half-maximal activity (AC50) under setting [1] is 3.16 µM [falling, full curve, poor fit]. On the same count and under the same terms, as for `COc1ccccc1N1CCN(C(c2cccs2)C(C)NC(=O)c2ccco2)CC1` (configuration not stated), the figure is 0.282 µM [rising, full curve, poor fit]. As for `C=CCNC(=O)c1ccc(C)cc1Cl`, the concentration at half-maximal activity (AC50) under setting [1] is 3.55 µM [rising, full curve, poor fit].

For the compound `Cc1cccc2sc(NC(=O)c3ccc(Cl)s3)nc12`, under setting [1], the concentration at half-maximal activity (AC50) was 4.11 µM [falling, partial curve]. On to `COC(=O)c1ccc(Oc2ccc3nnc(C)n3n2)cc1`, for which, under setting [1], the AC50 is 12.6 µM [rising, single point].

As to `CN1C(c2ccccc2)CC(=NO)CC1c1ccccc1` (configuration not stated), the AC50 under setting [1] was 1.78 µM [rising, full curve, poor fit]. As for `CC(C)CNC(=O)c1c(N)n(/N=C/c2cccnc2)c2nc3ccccc3nc12`, the concentration at half-maximal activity (AC50) under setting [1] is 0.461 µM [falling, full curve, poor fit].

On to `COc1ccc(-n2nc3cc(N)c(Br)cc3n2)cc1`, for which the half-maximal activity concentration (AC50) under setting [1] was 8.91 µM [rising, partial curve]. For the compound `O=C1NC(Cc2ccccc2)c2nc3cc(F)ccc3c(=O)n2-c2ccc(Cl)cc21` (configuration not stated), under setting [1], the AC50 is 23.1 µM [falling, partial curve, poor fit]. The same measure, in the same setting: as for `COc1cc(OC)c(C2N(C)c3ccccc3N2C)cc1OC`, the figure is 0.517 µM [falling, full curve, poor fit]. On to `CCc1cc(=O)oc2cc(C)cc(O)c12`, for which the AC50 was 2.31 µM [rising, full curve] under setting [1] and 5.17 µM [falling, partial curve, poor fit] under setting [2]. As to `Cn1nnnc1Sc1ncnc2scc(-c3ccccc3Br)c12`, under setting [1], the concentration at half-maximal activity (AC50) is 14.6 µM [falling, partial curve, poor fit]. Same read-out and setting: with `Nc1ncn(CC(=O)c2ccccc2)n1` the figure was 35.5 µM [rising, single point].

Regarding `O=C(CCn1c(=O)[nH]c2ccsc2c1=O)Nc1ccc(F)c(F)c1`, under setting [1], the half-maximal activity concentration (AC50) is 1.41 µM [falling, full curve, poor fit].

For `CCOc1ccc(NC(=O)c2ccccc2OCC(=O)c2ccccc2)cc1`, the AC50 under setting [1] was 1.3 µM [falling, full curve, poor fit]. The same measure, in the same setting: as for `CCn1cc([N+](=O)[O-])c(C(=O)Nc2nc(-c3ccc(C)c(C)c3)c(C)s2)n1`, the figure is 4.47 µM [falling, full curve, poor fit]; as for `COCCN(CCOC)C(=O)N1CCOCC1`, 17.8 µM [falling, single point]. In the case of `O=C(O)c1cc(N/N=C/C(Cl)=C/c2ccccc2)ccc1Cl`, the AC50 under setting [1] was 6.31 µM [falling, partial curve]. As to `CCOc1ncccc1C(=O)OCC(=O)Nc1ccc2c(c1)CCC2`, the concentration at half-maximal activity (AC50) under setting [1] is 16.4 µM [falling, partial curve]. For `Cc1ccccc1/C=N/Nc1ccc(Cl)nn1`, under setting [1], the concentration at half-maximal activity (AC50) was 35.5 µM [rising, partial curve, poor fit].

On to `COC(=O)c1sccc1NC(=O)CSc1ccc(Cl)cc1`, for which the concentration at half-maximal activity (AC50) under setting [1] is 6.31 µM [falling, partial curve]. With `CCOC(=O)C1=Nc2ccccc2C1=[N+]=[N-]`, the AC50 under setting [1] is 4.11 µM [rising, partial curve, poor fit]. Still for that read-out and setting: with `C/C=C/c1ccc(OCCn2nnc3ccccc32)c(OC)c1` the figure was 7.08 µM [rising, partial curve, poor fit]. The same measure, in the same setting: with `CSCCC(NC(=O)COc1ccccc1)C(=O)N(C)CC(=O)Nc1ccc(Cl)cc1` (configuration not stated) the figure was 29.1 µM [falling, single point]; with `CCc1cc(-c2n[nH]c(C)c2Oc2ccc(C(C)C)cc2)c(O)cc1O`, 32.6 µM [rising, single point]; with `Cc1ccc(C)c(N2CCN(C(=O)CCC(=O)N3CCOc4ccc(Cl)cc43)CC2)c1`, 7.08 µM [falling, partial curve].

`CCOc1cccc(C(=O)Nc2cnn(Cc3ccccc3)c2)c1`: the AC50 under setting [1] is 7.94 µM [falling, partial curve].

On to `CN(C)/C=N/c1ncc(C(=O)c2ccc(Cl)cc2)s1`, for which, under setting [1], the half-maximal activity concentration (AC50) was 29.1 µM [falling, single point].

In the case of `COc1ccccc1NC(=O)c1cnc(SCC(=O)N2CCOCC2)n(C)c1=O`, the half-maximal activity concentration (AC50) under setting [1] was 2.24 µM [falling, full curve].

For `COc1ccc(CC(=O)Nc2cccc(C(=O)Nc3ccccc3C(=O)O)c2)cc1OC`, the AC50 under setting [1] is 10 µM [falling, partial curve]. The same measure, in the same setting: as for `COc1ccc(N2CCN(C(=O)NC34CC5CC(CC(C5)C3)C4)CC2)cc1`, the figure is 20.6 µM [rising, partial curve, poor fit]. On the same count and under the same terms, as for `Cc1c(NC(=O)c2cn3ccccc3n2)cccc1-n1cnnn1`, the figure is 2.24 µM [rising, partial curve]; as for `Nc1ccc2c(c1)OC1(CCCC1)O2`, 0.0891 µM [rising, full curve, poor fit]. The same measure, in the same setting: as for `CCC(C)N(C(=O)COc1ccccc1C#N)C1CCS(=O)(=O)C1` (configuration not stated), the figure is 18.4 µM [falling, single point]; as for `COc1ccc([C@H]2CC(=O)C=C(c3ccc(C)c(F)c3)C2)cc1`, 29.1 µM [rising, single point]. In the case of `COc1ccc2cc(-c3cc(C(=O)O)c4ccccc4n3)ccc2c1`, the half-maximal activity concentration (AC50) under setting [1] was 0.1 µM [falling, full curve, poor fit]. Same read-out and setting: as for `CCOC(=O)CSc1nc2nc(C)cc(C)n2n1`, the figure is 0.731 µM [rising, full curve, poor fit]; as for `CC(C)c1ccc(NC(=O)C(=O)c2cn(CC(=O)N3CCCCC3)c3ccccc23)cc1`, 6.51 µM [falling, single point]. As to `Cn1c(=O)[nH]c(=O)c2c1nc(N1CCOCC1)n2CC(O)COc1ccc2ccccc2c1` (configuration not stated), the half-maximal activity concentration (AC50) under setting [1] was 0.731 µM [rising, full curve, poor fit]. Still for that read-out and setting: with `COc1ccc(C)cc1COC(=O)c1[nH]c(C)c(C(C)=O)c1C` the figure was 7.08 µM [falling, partial curve]; with `CCC(=O)OC1(C)C(=O)C=C2C=C(c3ccsc3)OC=C2C1=O` (configuration not stated), 4.47 µM [rising, single point].

With `CCOC(=O)c1cc(C)n(-c2ccc(Cl)cc2)c1C`, under setting [1], the AC50 was 3.55 µM [rising, full curve, poor fit]. On the same count and under the same terms, as for `COc1ccc(C(C)=O)cc1CC(=O)Nc1cccc(S(=O)(=O)N2CCOCC2)c1`, the figure is 16.4 µM [rising, partial curve, poor fit]; as for `COc1ccc(C2=NN(C(=O)CSc3ncccn3)C(c3cccc(OC)c3OC)C2)cc1` (configuration not stated), 2 µM [rising, full curve, poor fit]. Same read-out and setting: as for `O=C(CCCOC(=O)c1ccc(O)cc1O)c1ccccc1`, the figure is 0.0461 µM [rising, full curve, poor fit]; as for `COCc1ccc(-c2c(-c3ccsc3)sc3ccccc23)cc1`, 6.51 µM [rising, partial curve]; as for `O=C(O)c1cccc(S(=O)(=O)N2CCSCC2)c1`, 5.62 µM [rising, single point].

`Cc1ccc(S(=O)(=O)NCC2CCCO2)cc1[N+](=O)[O-]` (configuration not stated): the concentration at half-maximal activity (AC50) under setting [1] was 1.84 µM [rising, partial curve, poor fit].
